Source: patent publication US20030091978A1, “Assay for glucocorticoid receptor signalling pathway” (priority 2000, published 2003)
For at least one compound, name, drawing or mass did not settle the structure.

Tests used:
Type in all cases: cell-based
[1] = system: NFkB driven firefly luciferase activity; experiment: Dual cell assay (A549-NFkB-Firefly and A549-GRE-Renilla mixed 1:1), firefly readout; conditions: dual assay format, cell lines mixed 1:1 (FIG. 5)
[2] = system: AP-1 driven firefly-luciferase activity; experiment: A549-AP1-firefly luciferase reporter assay; conditions: A549-AP1-firefly cells, 10 ng/ml EGF
Description: Similarly the minimal region of the Interleukin-2 promoter containing 4 AP-1 binding sites was cloned upstream of the firefly luciferase gene to generate pAP1-firefly-neo
(§1) A549 cells were maintained in 5% CO2 at 37° C. in DMEM containing 10% foetal calf serum and 2 mM L-glutamine. Cells were stably transfected with p5NFkB-firefly-neo, p3GRE-renilla-neo or pAPI-firefly-neo using electroporation procedure. […] These cell lines were maintained in DMEM containing 10% foetal calf serum, 2 mM L-glutamine and 1 mg/ml G418.
(§2) Cells were plated into individual wells of a white 96-well viewplate at a cell density of 4×10^4/well in 100 μl of growth medium.
This cell line can therefore be used to monitor the repression of AP-1 signalling by glucocorticoid receptor ligands.

[3] = system: GRE-mediated gene transcription; experiment: A549-GRE-Renilla luciferase reporter assay; conditions: A549-GRE-Renilla cells
Source text: A synthetic GR responsive promoter consisting of three copies of the consensus glucocorticoid responsive element (GRE) (AGAACAnnnTGTACC) linked to a minimal herpes simplex thymidine kinase (HSV-TK) promoter was derived from the pGRE-SEAP plasmid purchased from Clontech. This was placed upstream of the Renilla luciferase reporter gene, contained in the pRLNull vector (Promega), to create the reporter construct p3GRE-renilla. The GRE containing promoter together with the renilla luciferase gene were then subcloned into the pcDNA3 vector, deleted of the CMV promoter, in order to generate the construct p3GRE-renilla-neo.
as §1, §2
This cell line will provide a means of measuring direct effects of glucocorticoid receptor agonists on GRE-mediated gene transcription.

[4] = system: GRE-mediated gene transcription; experiment: Dual cell assay (A549-NFkB-Firefly and A549-GRE-Renilla mixed 1:1), renilla readout; conditions: dual assay format, cell lines mixed 1:1 (FIG. 5)
[5] = system: NFkB driven firefly luciferase activity; experiment: A549-NFkB-firefly luciferase reporter assay (FireLITE); conditions: A549-NFkB-firefly cells, treatment 1 hour before and during stimulation with TNFα
Description: The firefly luciferase gene driven by a promoter containing five copies of the nuclear factor kB consensus sequence (GGGGACTTTCC) was derived from the pNF-kB-Luc plasmid, purchased from Stratagene, and subcloned into the pcDNA3 vector, deleted of the CMV promoter, in order to generate the construct p5NFkB-firefly-neo.
as §1, §2
The individual cell clones were first characterised for responsiveness in isolation.

`C[C@@H]1C[C@H]2[C@@H]3CCC4=CC(=O)C=C[C@]4(C)[C@@]3(F)[C@@H](O)C[C@]2(C)[C@@]1(O)C(=O)CO` [dexamethasone] was tested, and the firefly luciferase activity [1] was “increase”, the “inhibition of EGF-stimulated firefly luciferase activity” value [2] was “inhibited dose-dependently” and the “increase in renilla luciferase activity” value [3] was “dose-dependent increase”. The renilla luciferase activity [4] was “dose dependent inhibition” and the “inhibition of NFkB driven firefly luciferase activity” value [5] was “dose-dependent inhibition”.
